According to US20170226207A1 (Astellas, published 2017):

B1: humanized antibody CL6_40m12_DDW (antibody, human IgG1, kappa, V domains shown)
VH: EVQMVESGGGLVQPGGSLRLSCAVSGFSLSSYSVHWVRQAPGKGLEWVAGIWSGGSIHYTPALSSRFTVSRDDSKNTVYLQMNSLRAEDTAVYYCARYDRYETYAMDYWGQGTLVTVSS
VL: DIQLTQSPSSLSASVGDRVTITCKASQSVDYDGDSYMNWYQQKPGKAPKLLIYAASNLESGVPSRFSGSGSGTDFTLTISSLQPEDFATYYCQQSNEDPLTFGQGTKVEIKR
notes: Humanized anti-human Igβ antibody
B2: humanized antibody CL6_40m16_DDW (antibody, human IgG1, kappa, V domains shown)
VH: B1 VH with M4L, V37F, Q39K, V48L, A49G, F67L, D73I
VL: B1 VL with Q3V
notes: as for B1

Biological target: monkey Igβ-Flag protein (monkey)
Test: antigen ELISA, Igβ-Flag coated on plate

Binder	binding
B1	binds
B2	binds

Positions count from the first letter of the chain named. Results are given in words; binding and its absence hold for the method and conditions named. A result given as binding can be weak or reduced; the word gives no strength.
